# Taken from: PubChem BioAssay AID504793 (Drosophila RNAi Screening Center, 2011)
# Aim: 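Knock-downs allowing continued mitosis even though DNA is damaged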 (primary screen)
# Cells: Drosophila S2R+ cells
# Knock-down reagent: long dsRNA against Drosophila genes, about 0.25 µg dsRNA per well
# Timing: 4 days of dsRNA, then 4 hours of drug before read-out
# Challenge: doxorubicin 0.5 µM for 4 hours to cause double-strand breaks, in cells also given a low, harmless dose of dsRNA against nbs to sensitise the assay
# Read-out: 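Per-well count of mitotic cells stained for phospho-histone H3 after doxorubicin exposure, used as mitotic index; counts are raw and not normalised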
# Direction: mitotic cells: higher = more cells in mitosis, weaker G2 arrest
# Rule for the call: 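Genes are called active only when high mitotic counts were reproduced with independent dsRNAs and mitosis was checked for delay without damage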
# Calls: active = confirmed in follow-up tests; inactive = not confirmed
# The screen tested about 23,000 reagents; shown is an unselected part of those with a known target gene and a result. Over the whole deposit, 62 (0.27%) were called active. 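Calls come from follow-up tests whose scores are not deposited, so confirmed genes may have low counts here; counts are not normalised per plate.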 Raw values are not corrected between plates. Unmarked entries are inactive. Reagents against one gene are numbered here. A plus sign joins genes that one reagent is predicted to hit. No sequences are given here.
target,dsRNA no.,"mitotic cells, replicate 1"
Tspo (GeneID 33231),1,4
CG7102 (GeneID 34079),1,6
CG7102 (GeneID 34079),2,7
CG8646 (GeneID 36394),1,6
CG7402 (GeneID 39994),1,8
Or9a (GeneID 31975),1,9
Or9a (GeneID 31975),2,6
RhoGAP15B (GeneID 32686),1,5
RhoGAP15B (GeneID 32686),2,7
Ugalt (GeneID 31255),1,8
CG14186 (GeneID 40196),1,11
CG14186 (GeneID 40196),2,9
CG3473 (GeneID 34849),1,7
CG13133 (GeneID 34342),1,4
CG11902 (GeneID 43070),1,19
CG11902 (GeneID 43070),2,7
CG4619 (GeneID 34321),1,3
Kat60 (GeneID 53566),1,6
GstD2 (GeneID 48335),1,2
GstD2 (GeneID 48335),2,7
CG3588 (GeneID 31278),1,8
CG3588 (GeneID 31278),2,10
Pp1-87B (GeneID 49260),1,36
Pp1-87B (GeneID 49260),2,8
Pp1-87B (GeneID 49260),3,7
Aprt (GeneID 48224),1,7
mRpL20 (GeneID 39477),1,4
Rcd5 (GeneID 38478),1,11 (active)
Rcd5 (GeneID 38478),2,20 (active)
Tsp29Fb (GeneID 34212),1,4
Tsp29Fb (GeneID 34212),2,4
BG642163 (GeneID 4379888),1,4
BG642163 (GeneID 4379888),2,2
TyrRS-m (GeneID 37965),1,6
Ance (GeneID 34805),1,5
CG45105 (GeneID 41932),1,5
CG45105 (GeneID 41932),2,5
DNAlig1 (GeneID 37791),1,6
Elba2 (GeneID 33442),1,6
Elba2 (GeneID 33442),2,3
Vajk1 (GeneID 34809),1,8
Vajk1 (GeneID 34809),2,3
Hsp70Bb + Hsp70Ba + Hsp70Bc + 1 more,1,7
Hsp70Bb + Hsp70Ba + Hsp70Bc + 1 more,2,4
mod (GeneID 43764),1,3
mod (GeneID 43764),2,8
Cpsf6 (GeneID 38937),1,6
CG13996 (GeneID 33842),1,8
CG3704 (GeneID 31043),1,12
CG3704 (GeneID 31043),2,13
CG3704 (GeneID 31043),3,2
CG15022 (GeneID 38549),1,4
CG15022 (GeneID 38549),2,2
hdm (GeneID 31705),1,15
ng2 (GeneID 31298),1,12
CG10749 (GeneID 39470),1,1
CG10749 (GeneID 39470),2,8
Gr39a (GeneID 117346),1,5
Gr39a (GeneID 117346),2,8
Gr39a (GeneID 117346),3,3
Impbeta11 (GeneID 36732),1,4
Tim13 (GeneID 39327),1,8
Fdh (GeneID 41311),1,3
Cyp303a1 (GeneID 49165),1,3
Mvd (GeneID 32520),1,7
Brms1 (GeneID 32243),1,13
CG16812 (GeneID 34722),1,5
CG16812 (GeneID 34722),2,5
COX6AL (GeneID 246451),1,10
CG12725 (GeneID 32298),1,14
CG12725 (GeneID 32298),2,5
CG6262 (GeneID 36833),1,9
CG6262 (GeneID 36833),2,9
CG9312 (GeneID 41686),1,6
ATPsyngamma (GeneID 43507),1,18

Records listed so far whose target name begins with V or v:
target,dsRNA no.,"mitotic cells, replicate 1"
Vajk1 (GeneID 34809),1,8
Vajk1 (GeneID 34809),2,3
